Values joined by “and” are separate entries in the source; they are usually repeats but may differ in a detail not shown here. Equal values may be shown once. The name of at least one read-out is uncertain. Marks after values point to notes of the source that are not given here.
System: C. albicans (MC303)
Test: C. albicans morphology assay (hyphae scored 1-5)
Conditions: invasion morphology phenotype, test compound at 10 μM, scale 1-5

With `Cc1cc(NS(=O)(=O)c2ccc(-c3ccc(F)cc3)cc2)no1` as the molecule, how does the “C. albicans Phenotype Rating” value read?
The value was 1* and 2*.
